The list shows a part of the results. Shown are side measurements of this screen, not its main read-out; they come without a call. Most of these compounds were active or inconclusive in the main read-out, so they are no random draw. The note in brackets gives the kind of curve behind each potency; many fits are weak.
Assay: qHTS Assay for Modulators of Lamin A Splicing
Conditions: HeLa LMNA splicing GFP/RFP minigene ratio, 48 h
Outline: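 Read-out is the ratio of GFP to DsRed2 object intensity, acquired by 488 nm laser-scanning cytometry on HeLa lamin A-EGFP minigene reporter cells. Compound incubation 48 hrs at 37 °C in Opti-MEM with 2% FBS; DMSO 0.5% final.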

[1] = measured here: RFP viability control channel
[2] = measured here: GFP splicing reporter channel

N=C(c1cccc([N+](=O)[O-])c1)N1CCCCC1
AC50 [1]: 0.01 µM [falling, full curve, poor fit]

COCCNC(=S)N1CCc2cc(OC)c(OC)cc2C1COc1ccc(F)cc1 (stereo unspecified)
AC50 [2]: 4.47 µM [falling, full curve] | AC50 [1]: 3.55 µM [falling, full curve, poor fit]

CCOC(=O)c1cc2occc2n1CC(=O)Nc1ccc(OC)cc1OC
AC50 [1]: 35.5 µM [rising, single point]

CN(c1cccc(Cl)c1)S(=O)(=O)c1cccc(C(=O)Nc2nc3ccccc3[nH]2)c1
AC50 [2]: 6.31 µM [falling, partial curve, poor fit] | AC50 [1]: 35.5 µM [falling, single point]

CCC(C)NC(=S)N1CCN(C(c2ccccc2)c2ccccc2)CC1 (stereo unspecified)
AC50 [2]: 35.5 µM [rising, single point] | AC50 [1]: 31.6 µM [rising, single point]

CN1CCN(c2ncnc3ccc(-c4ccc5c(c4)OCO5)cc23)CC1
AC50 [2]: 11.2 µM [falling, single point] | AC50 [1]: 0.251 µM [falling, full curve, poor fit]

O=c1[nH]c(NC2CCCCC2)nnc1Cc1ccccc1
AC50 [2]: 0.501 µM [falling, full curve, poor fit] | AC50 [1]: 0.501 µM [falling, full curve, poor fit]

COC(=O)/C(=N/Nc1ccccc1C)N1CCCc2ccccc21
AC50 [1]: 12.6 µM [rising, partial curve, poor fit]

COc1ccc(N2CCN(C(=O)c3ccc(-n4nc(C)cc4C)cc3)CC2)cc1
AC50 [2]: 20 µM [rising, partial curve, poor fit] | AC50 [1]: 22.4 µM [rising, single point]

CN(C)CC(O)CN1C(=O)NC(C)(C)C1=O (stereo unspecified)
AC50 [2]: 1.26 µM [falling, partial curve, poor fit] | AC50 [1]: 0.631 µM [falling, full curve]

CCn1cc(S(=O)(=O)c2cc(C)cc(C)c2)c(=O)c2cc(F)c(N3CCCC3)cc21
AC50 [2]: 0.0224 µM [falling, full curve, poor fit]

C#CCn1c(=NC(=O)c2ccc(S(=O)(=O)N3CCc4ccccc4C3)cc2)sc2cc(S(N)(=O)=O)ccc21
AC50 [1]: 15.8 µM [falling, partial curve, poor fit]

COc1ccc(N2CCN(C(=O)c3ccc(N(C)S(=O)(=O)c4ccc(OC)cc4)cc3)CC2)cc1
AC50 [2]: 10 µM [falling, partial curve] | AC50 [1]: 6.31 µM [falling, full curve, poor fit]

O=C(NCCc1ccc2c(c1)OCCO2)c1ccccc1F
AC50 [2]: 12.6 µM [rising, partial curve, poor fit] | AC50 [1]: 14.1 µM [rising, partial curve]

COc1ccccc1N1CCN(c2ncnc3c2oc2ccccc23)CC1
AC50 [1]: 5.01 µM [rising, full curve]

CCOC(=O)c1c(-c2ccc(F)cc2)csc1NC(=O)c1c(-c2ccccc2)noc1C
AC50 [1]: 8.91 µM [rising, partial curve]

CC1(C(=O)NCCN2CCOCC2)C=CCN1C(=O)c1ccccc1 (stereo unspecified)
AC50 [1]: 1.26 µM [falling, full curve, poor fit]

Cc1ccc(NC(=O)CN2C(=O)S/C(=C/c3ccc(O)c([N+](=O)[O-])c3)C2=O)cc1C
AC50 [2]: 8.91 µM [falling, partial curve, poor fit] | AC50 [1]: 11.2 µM [falling, partial curve, poor fit]

Cc1ccc(S(=O)(=O)N2CCN(C(=O)CSc3ncc(C(F)(F)F)cc3Cl)CC2)cc1
AC50 [1]: 31.6 µM [rising, single point]

CCOc1ccc(OC(=O)c2cn(-c3ccc(C)cc3)c(=O)c3ccccc23)cc1
AC50 [1]: 2.24 µM [rising, partial curve, poor fit]

O=C(Cc1ccc(Cl)c(Cl)c1)Nc1ccc(SC(F)F)cc1
AC50 [1]: 35.5 µM [rising, single point]

O=C(CCN1CCOCC1)c1ccc(Br)cc1
AC50 [2]: 8.91 µM [falling, partial curve] | AC50 [1]: 11.2 µM [falling, partial curve]

Cc1ccc(OC(=O)c2cc(=O)c3ccccc3o2)cc1
AC50 [2]: 0.141 µM [rising, full curve, poor fit]

O=C1CCCC(=O)N1c1ccc(N2CCN(c3ccc([N+](=O)[O-])cc3)CC2)c([N+](=O)[O-])c1
AC50 [2]: 31.6 µM [rising, single point] | AC50 [1]: 35.5 µM [rising, single point]

S=C(NCCc1ccc(Cl)cc1)Nc1ccc(Cl)cc1Cl
AC50 [1]: 11.2 µM [rising, partial curve]

CC1(C)Cc2nc3sc4c(N(CCO)CCO)nnnc4c3cc2CO1
AC50 [2]: 0.00316 µM [rising, full curve, poor fit] | AC50 [1]: 0.00316 µM [rising, full curve, poor fit]

O=CNCC(=O)NCCc1ccc(Cl)cc1
AC50 [2]: 0.501 µM [falling, partial curve, poor fit] | AC50 [1]: 0.562 µM [falling, partial curve, poor fit]

CCc1ccc(OCc2n[nH]c(=S)n2C(C)CCCC(C)C)cc1 (stereo unspecified)
AC50 [2]: 35.5 µM [falling, single point] | AC50 [1]: 22.4 µM [falling, single point]

CN(N=O)C(=O)N[C@H]1[C@@H](O)[C@H](O)[C@H](CO)O[C@@H]1O
AC50 [2]: 0.00224 µM [falling, full curve, poor fit] | AC50 [1]: 2.82 µM [rising, full curve, poor fit]

CCn1ncc(C2=NOC(C(=O)Nc3c(C)nn(Cc4ccc(F)cc4)c3C)C2)c1C (stereo unspecified)
AC50 [1]: 35.5 µM [rising, single point]

CCOC(=O)CC(NS(=O)(=O)c1ccc2[nH]c3c(c2c1)CCCC3)c1ccccc1Cl (stereo unspecified)
AC50 [2]: 0.112 µM [falling, full curve, poor fit] | AC50 [1]: 1 µM [falling, partial curve]

Fc1ccc(C(Nc2ccccn2)c2c[nH]c3ccccc23)cc1 (stereo unspecified)
AC50 [2]: 10 µM [falling, partial curve]

COC(=O)c1[nH]nc(C(=O)OC(C)(C)C)c1-c1ccccc1
AC50 [2]: 15.8 µM [rising, single point] | AC50 [1]: 35.5 µM [rising, single point]

O=C(CSc1nnnn1Cc1ccccc1)c1ccccc1
AC50 [1]: 3.55 µM [falling, single point]

COC(=O)c1c(-c2ccc(Cl)cc2)noc1N1CCN(c2ccc(C)cc2C)CC1
AC50 [2]: 14.1 µM [falling, partial curve]

COc1ccc(OCc2cccc(C(=O)NN)c2)cc1
AC50 [1]: 0.0891 µM [falling, full curve, poor fit]

COC(=O)C1=C(O)/C(=C\c2ccc(CNS(=O)(=O)c3ccccc3)o2)N=C1C
AC50 [2]: 4.47 µM [falling, single point]

O=C(Nc1ccccc1)c1nnsc1S(=O)(=O)c1ccc(Cl)cc1
AC50 [2]: 4.47 µM [falling, partial curve, poor fit]

O=C(Nc1ccc(N2CCN(C(=O)c3ccccc3)CC2)c(Cl)c1)c1cccnc1
AC50 [1]: 11.2 µM [rising, single point]

Cc1ccc2nc(N(Cc3cccnc3)C(=O)COc3ccccc3)sc2c1
AC50 [2]: 4.47 µM [falling, full curve] | AC50 [1]: 4.47 µM [falling, full curve, poor fit]

COCCNc1ncnc2ccc(-c3c(C)noc3C)cc12
AC50 [2]: 0.794 µM [falling, full curve]

O=C(CSc1ccc(-c2ccc(Br)cc2)nn1)N1CCOCC1
AC50 [1]: 0.00316 µM [falling, full curve, poor fit]

Cc1cccc(N2CCN(CCNC(=O)C3COc4ccccc4C3)CC2)c1C (stereo unspecified)
AC50 [2]: 12.6 µM [falling, single point]

COc1ccc(-c2nnc(SCc3nc4ccccc4s3)n2C(C)C)cc1
AC50 [1]: 10 µM [rising, partial curve, poor fit]

Cc1ccc(CNC(=O)c2cc3c(=O)n4ccccc4nc3n(Cc3ccco3)c2=N)cc1
AC50 [2]: 10 µM [rising, partial curve] | AC50 [1]: 10 µM [rising, partial curve, poor fit]

O=C(NC1CC(=O)N(c2cccc(F)c2)C1)c1ccc(Br)o1 (stereo unspecified)
AC50 [1]: 0.00316 µM [falling, full curve, poor fit]

CCCCCc1nnc(NC(=O)C2COc3ccccc3O2)s1 (stereo unspecified)
AC50 [2]: 0.708 µM [rising, single point]

Cc1ccccc1-c1nsc(SCC(=O)Nc2ccc3c(c2)OCO3)n1
AC50 [1]: 0.794 µM [rising, partial curve, poor fit]

O=C(NC1CCCCC1)c1sc(N2CCOCC2)nc1-c1ccccc1
AC50 [1]: 0.0251 µM [rising, full curve, poor fit]

Cn1nnnc1Sc1ncnc2scc(-c3ccc(F)cc3)c12
AC50 [2]: 3.16 µM [rising, single point]

O=C(Oc1ccc(OC(=O)N2CCCCC2)cc1)N1CCCCC1
AC50 [2]: 0.891 µM [rising, full curve, poor fit]

O=C(CSC1=NC2(CCCCC2)N=C1c1ccccc1)Nc1ccc2c(c1)OCCO2
AC50 [1]: 35.5 µM [rising, single point]

Nc1nc(-c2ccccc2)c(N=Nc2cccc3ccccc23)s1
AC50 [2]: 12.6 µM [rising, partial curve] | AC50 [1]: 17.8 µM [rising, partial curve]

Cc1ccc(C(C)C)cc1OCC(=O)N/N=C/c1ccc2c(c1)OCCO2
AC50 [2]: 7.08 µM [rising, partial curve] | AC50 [1]: 12.6 µM [rising, partial curve]
